These are yes or no findings as the source states them, for the method shown. Sequences can lack the tags named with a protein.
B1: human BMP9 (ligand, UniProt Q9UK05 320-429)
chain: SAGAGSHCQKTSLRVNFEDIGWDSWIIAPKEYEAYECKGGCFFPLADDVTPTKHAIVQTLVHLKFPTKVGKACCVPTKLSPISVLYKDDMGVPTLKYHYEGMSVAECGCR
B2: human BMP15 (ligand, UniProt O95972 268-392)
chain: QADGISAEVTASSSKHSGPENNQCSLHPFQISFRQLGWDHWIIAPPFYTPNYCKGTCLRVLRDGLNSPNHAIIQNLINQLVDQSVPRPSCVPYKYVPISVLMIEANGSILYKEYEGMIAESCTCR
B3: human GDF9 (ligand, UniProt O60383 320-454)
chain: GQETVSSELKKPLGPASFNLSEYFRQFLLPQNECELHDFRLSFSQLKWDNWIVAPHRYNPRYCKGDCPRAVGHRYGSPVHTMVQNIIYEKLDSSVPRPSCVPAKYSPLSVLTIEPDGSIAYKEYEDMIATKCTCR
B4: human GDF11 (ligand, UniProt O95390 299-407)
chain: NLGLDCDEHSSESRCCRYPLTVDFEAFGWDWIIAPKRYKANYCSGQCEYMFMQKYPHTHLVQQANPRGSAGPCCTPTKMSPINMLYFNDKQQIIYGKIPGMVVDRCGCS

Amino acid sequences for entries named in this document (tags omitted). Residues count along the entry.
UniProt P08476, residues 311-426: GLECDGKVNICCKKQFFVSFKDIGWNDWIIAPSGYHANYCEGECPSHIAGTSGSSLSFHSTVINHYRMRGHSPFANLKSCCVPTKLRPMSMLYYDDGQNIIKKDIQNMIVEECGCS

Molecular target: T1, recombinant BMPRIB-Fc (mouse, UniProt P36898 14-126)
T1 construct: BMPRIB (ALK6), mouse, extracellular domain; cDNA fragment NM_007560.3, 4-378 bp, from FANTOM cDNA clones (RIKEN); also called ALK6; source: 293F cells, transfected, purified from culture supernatant (Protein A columns)
T1 sequence (looked up): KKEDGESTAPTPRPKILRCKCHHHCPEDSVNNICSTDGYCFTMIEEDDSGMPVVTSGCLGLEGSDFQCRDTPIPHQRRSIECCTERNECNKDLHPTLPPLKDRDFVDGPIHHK
Experiment: SPR; BMPRIA-Fc or BMPRIB-Fc captured with an anti-human Fc IgG capture kit; ligands injected at 25 °C, 30 μL/min; HBS-EP (+) running buffer; single-cycle kinetics, 1:1 binding model, Biacore T100; average of 2 or 3 independent analyses; both purified

binding, no binding:
human Activin A (from UniProt P08476 311-426) (ligand)
B1
B2
B3
B4
